{"source": "PubChem BioAssay AID743121 – NCATS | 2013", "test": "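Knock-downs that sensitise breast cancer cells to camptothecin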 (primary screen)", "system": "MDA-MB-231 cells, a human breast cancer line", "reagents": "single siRNA against human genes, 20 nM siRNA (0.8 pmol per well)", "time to read-out": "120 h (drug added 48 h after transfection, read 72 h later)", "challenge": "camptothecin 20 nM (about EC30) for 72 h; vehicle 0.1% DMSO in parallel plates", "measurement": "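Cell viability by ATP luminescence (CellTiter-Glo) as % of non-targeting siRNA wells, and the log2 ratio of viability without drug over viability with camptothecin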", "direction": "log2 vehicle/camptothecin viability: higher = stronger sensitisation to camptothecin", "active means": "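Active genes have an RSA gene-level p-value below 0.001, computed from the ratios of their separate siRNAs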", "note": "This is an unselected part of about 26,000 reagents. Over the whole deposit, 167 (0.63%) were called active. 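Calls are per gene from RSA p-values that are not deposited; an individual active-marked siRNA can sensitise only weakly.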 The numbers tell different reagents against one gene apart. Further read-outs or replicates are left out here."}
{"gene": "IL22", "reagent no.": 1, "log2 vehicle/camptothecin viability": -0.431, "Call": "inactive"}
{"gene": "IL22", "reagent no.": 2, "log2 vehicle/camptothecin viability": -0.0841, "Call": "inactive"}
{"gene": "IL22", "reagent no.": 3, "log2 vehicle/camptothecin viability": -0.064, "Call": "inactive"}
{"gene": "IL22", "reagent no.": 4, "log2 vehicle/camptothecin viability": -0.147, "Call": "inactive"}
{"gene": "IDUA", "reagent no.": 1, "log2 vehicle/camptothecin viability": 0.36, "Call": "inactive"}
{"gene": "IDUA", "reagent no.": 2, "log2 vehicle/camptothecin viability": -0.159, "Call": "inactive"}
{"gene": "IDUA", "reagent no.": 3, "log2 vehicle/camptothecin viability": -0.178, "Call": "inactive"}
{"gene": "IDUA", "reagent no.": 4, "log2 vehicle/camptothecin viability": 0.0746, "Call": "inactive"}
{"gene": "AQP7", "reagent no.": 1, "log2 vehicle/camptothecin viability": 0.101, "Call": "inactive"}
{"gene": "AQP7", "reagent no.": 2, "log2 vehicle/camptothecin viability": -0.0927, "Call": "inactive"}
{"gene": "AQP7", "reagent no.": 3, "log2 vehicle/camptothecin viability": -0.106, "Call": "inactive"}
{"gene": "AQP7", "reagent no.": 4, "log2 vehicle/camptothecin viability": -0.0911, "Call": "inactive"}
{"gene": "FOXD2", "reagent no.": 1, "log2 vehicle/camptothecin viability": 0.16, "Call": "inactive"}
{"gene": "FOXD2", "reagent no.": 2, "log2 vehicle/camptothecin viability": -0.228, "Call": "inactive"}
{"gene": "FOXD2", "reagent no.": 3, "log2 vehicle/camptothecin viability": -0.495, "Call": "inactive"}
{"gene": "FOXD2", "reagent no.": 4, "log2 vehicle/camptothecin viability": -0.56, "Call": "inactive"}

4 entries from above in another layout.
| gene | reagent no. | log2 vehicle/camptothecin viability | Call |
| --- | --- | --- | --- |
| IDUA | 2 | -0.159 | inactive |
| IDUA | 3 | -0.178 | inactive |
| IDUA | 4 | 0.0746 | inactive |
| AQP7 | 1 | 0.101 | inactive |

Further entries follow.
{"gene": "TGFBR1", "reagent no.": 1, "log2 vehicle/camptothecin viability": 0.27, "Call": "inactive"}
{"gene": "TGFBR1", "reagent no.": 2, "log2 vehicle/camptothecin viability": -0.306, "Call": "inactive"}
{"gene": "TGFBR1", "reagent no.": 3, "log2 vehicle/camptothecin viability": -0.341, "Call": "inactive"}
{"gene": "TGFBR1", "reagent no.": 4, "log2 vehicle/camptothecin viability": -0.171, "Call": "inactive"}
{"gene": "KIF1A", "reagent no.": 1, "log2 vehicle/camptothecin viability": -0.0174, "Call": "inactive"}
{"gene": "KIF1A", "reagent no.": 2, "log2 vehicle/camptothecin viability": -0.0303, "Call": "inactive"}
{"gene": "KIF1A", "reagent no.": 3, "log2 vehicle/camptothecin viability": 1.01, "Call": "inactive"}
{"gene": "TRDMT1", "reagent no.": 1, "log2 vehicle/camptothecin viability": 0.385, "Call": "inactive"}
{"gene": "TRDMT1", "reagent no.": 2, "log2 vehicle/camptothecin viability": -0.202, "Call": "inactive"}
{"gene": "TRDMT1", "reagent no.": 3, "log2 vehicle/camptothecin viability": 0.207, "Call": "inactive"}
{"gene": "YY1", "reagent no.": 1, "log2 vehicle/camptothecin viability": 0.00299, "Call": "inactive"}
{"gene": "YY1", "reagent no.": 2, "log2 vehicle/camptothecin viability": -0.0566, "Call": "inactive"}
{"gene": "YY1", "reagent no.": 3, "log2 vehicle/camptothecin viability": 0.183, "Call": "inactive"}
{"gene": "YY1", "reagent no.": 4, "log2 vehicle/camptothecin viability": 0.137, "Call": "inactive"}
{"gene": "FANCE", "reagent no.": 1, "log2 vehicle/camptothecin viability": -0.204, "Call": "inactive"}
{"gene": "FANCE", "reagent no.": 2, "log2 vehicle/camptothecin viability": -0.167, "Call": "inactive"}
{"gene": "FANCE", "reagent no.": 3, "log2 vehicle/camptothecin viability": -0.251, "Call": "inactive"}
{"gene": "FANCE", "reagent no.": 4, "log2 vehicle/camptothecin viability": -0.339, "Call": "inactive"}
{"gene": "USP15", "reagent no.": 1, "log2 vehicle/camptothecin viability": -0.432, "Call": "inactive"}
{"gene": "USP15", "reagent no.": 2, "log2 vehicle/camptothecin viability": -0.145, "Call": "inactive"}
{"gene": "USP15", "reagent no.": 3, "log2 vehicle/camptothecin viability": 0.285, "Call": "inactive"}
{"gene": "USP15", "reagent no.": 4, "log2 vehicle/camptothecin viability": -0.0692, "Call": "inactive"}
{"gene": "SOX4", "reagent no.": 1, "log2 vehicle/camptothecin viability": -0.382, "Call": "inactive"}
{"gene": "SOX4", "reagent no.": 2, "log2 vehicle/camptothecin viability": -0.184, "Call": "inactive"}
{"gene": "SOX4", "reagent no.": 3, "log2 vehicle/camptothecin viability": -0.111, "Call": "inactive"}
{"gene": "SOX4", "reagent no.": 4, "log2 vehicle/camptothecin viability": -0.0935, "Call": "inactive"}
{"gene": "GPR35", "reagent no.": 1, "log2 vehicle/camptothecin viability": -0.256, "Call": "inactive"}
{"gene": "GPR35", "reagent no.": 2, "log2 vehicle/camptothecin viability": -0.401, "Call": "inactive"}
{"gene": "GPR35", "reagent no.": 3, "log2 vehicle/camptothecin viability": -0.543, "Call": "inactive"}
{"gene": "GPR35", "reagent no.": 4, "log2 vehicle/camptothecin viability": -0.373, "Call": "inactive"}
